Screening data, single-dose tests

Measurements from “University of Dundee, Small-Polar-MMV Screening Library” (2021), ChEMBL document CHEMBL3988442.

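Assay of Toxoplasma gondii numbers, read through their beta-galactosidase reporter with a colour substrate. Concentration: 50 µM. The record gives no direction; the compounds picked for IC50 retests had high values, so higher reads as fewer parasites. About 18,000 compounds were tested under these conditions; 0.94% (about 170) showed 50% or more at least once.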

Values are the deposited “Percent Effect”, in %. The controls that fix the scale are not given in the record; negative values are as filed. Compounds were drawn at random from those tested, without regard to their results.

structure	percent effect
CCOc1cc(C(=O)NCc2ccc(C)n2C)ccn1	-6.236
O=C(c1ccoc1)N1CCCCC1Cn1cccn1 (centres undefined)	10.41
CC(=O)c1ccc(OCC(O)CNC2CCCC2)cc1 (centres undefined)	6.61
Cn1ccnc1CN(CCO)CC1CC1	-2.063
O=C1NCC(O)n2c1cc(Br)c2Br (centres undefined)	-16.24
CN1C(=O)N[C@@H]2CNCC[C@@H]21	-1.491
O=C(C1CCC1)N1C[C@@H](O)[C@H](NCc2cccnc2)C1	2.221
Cc1cc(Br)cnc1N1CCN(C(C)C(N)=O)CC1 (centres undefined)	-0.3878
CC(C)C(C)(C#N)NC(=O)CNc1cccc(F)c1 (centres undefined)	-12.8
COc1ccc(NC(=O)c2ccc(Br)cn2)cc1CO	-27.31
CC(=O)NC(C(=O)N(C)Cc1ccc(F)cc1)C(C)C (centres undefined)	4.362
NCC(CO)Cc1cc(F)cc(Br)c1 (centres undefined)	7.273
NCc1cccc(=O)[nH]1	7.752
CC(Sc1nnc(NCc2ccc(F)cc2)s1)C(N)=O (centres undefined)	-6.114
CC1CN(CCS(=O)(=O)c2ccccc2)CCO1 (centres undefined)	-9.202
CCC(NC(=O)c1cnc(SC)nc1)c1ccnn1C (centres undefined)	2.95
COC(=O)CNC(=O)C(C)N(C)CC(C)C (centres undefined)	22.4
O=C1CC(c2ccccc2)C(=O)N1 (centres undefined)	-27.59
Cc1nnc(CNC(=O)c2ccccc2OC(F)F)o1	-11.48
Cc1cc2cc(C(=O)N[C@@H]3CCOC[C@H]3O)ccc2o1	0.611
NC1CCN(c2cccs2)CC1	11.83
CCC1(CO)CCCN(C(=O)CCc2cnccn2)C1 (centres undefined)	-8.103
Cn1c(CCN)nc2cc(F)ccc21	-9.62
CC1C(=O)NCCN1C(=O)NCc1cc(F)cc(Br)c1 (centres undefined)	2.881
CCOC(=O)Cn1nnc2ccccc2c1=O	1.229
Cc1cc(=O)n(C)cc1NS(=O)(=O)c1ccccc1F	3.228
CCN(CC)CC(=O)NCc1c(C)cc(C)[nH]c1=O	-2.673
CN1CCC(NC(=O)c2ccc(C#N)cc2)CC1	-0.1745
Cc1cc(CCCC(=O)NCCS(N)(=O)=O)c(C)s1	4.955
Cc1n[nH]c(SCC(=O)NCCN2CCCC2=O)n1	1.408
COc1ccc(SCC(=O)NC2CCN(C)CC2)cc1	-13.26
COc1c(C)cc(Br)cc1C(=O)Nc1nnn(C)n1	8.478
CCOCCN(C)CC(=O)Nc1cc(C)ccn1	-7.683
CC(c1nc(COc2ccc(F)cc2)no1)S(C)(=O)=O (centres undefined)	-20.48
CCOc1ccccc1OCCN	2.289
COc1cccc(N2CCC(N)C2)c1 (centres undefined)	-3.725
CNS(=O)(=O)CCCNC(C)c1ccc(C)o1 (centres undefined)	-8.551
CCN(CC)CCN1CCN(CCOC)CC1	-2.804
CCN1CCN(CCNC(=O)c2cnc(C)cn2)CC1	-19.98
CN1N=C(C(=O)NCCCN(C)S(C)(=O)=O)CCC1=O	1.268
O=C1CN(S(=O)(=O)CCC2CC2)c2ccccc2N1	5.066
CN(C)c1ncccc1N	1.469
CN(C)CCCNS(=O)(=O)Cc1ccccc1F	1.621
CCC(C)NC(=O)Nc1cccc(C(=O)NC)c1 (centres undefined)	-16.27
CCN(Cc1c(OC)ccc(F)c1F)[C@H]1COC[C@@H]1O	7.946
OCC1CCC2(CCN2)CC1 (centres undefined)	33.68
COCCCNC(=O)CN(C)c1ccccc1F	2.537
CCOC(=O)N1CCCC(C(=O)N2CC[C@@H](OC)C2)C1 (some centres undefined)	15.54
Cc1[nH][nH]c(=O)c1CCO	9.222
C=C(C)COc1ccccc1CNCCNC(C)=O	4.326
CN(C)S(=O)(=O)c1ccc(CS(=O)(=O)C2CCCC2)o1	-14.09
Cn1cccc1C(=O)NCCc1ccncc1	-5.894
CN(C)C1CCN(C(=O)CC#N)CC1	-1.144
NCc1ccnc(OCC(F)F)c1	4.892
C1CCC(COC2CCNCC2)OC1 (centres undefined)	-4.662
NC1CCN(c2ccccn2)C1 (centres undefined)	-0.08172
CC1CN(S(=O)(=O)c2ccc(C#N)c(Cl)c2)CCO1 (centres undefined)	-1.569
CC(C)n1cccc1C(=O)NCCc1cncn1C	7.567
CC(C)CC(N)C(=O)N1CCNC(=O)C1 (centres undefined)	11.53
Cc1ccc(F)c(C(=O)N[C@@H]2CNC[C@H]2O)c1Cl	0.3944
COC(=O)CN1CCN(C(=O)N(C)C)CC1	-4.251
CC(OCC(F)(F)F)C(=O)Nc1cnn(C)c1 (centres undefined)	0.405
CCO[C@H]1COC[C@@H]1NC(=O)c1cn(CCN)nn1	-9.401
OCCN(CCO)CCc1ccccc1Cl	-2.466
NCc1ccncc1OCc1ccccc1	-7.342
Cc1cc(NC(=O)Cn2ncn(C)c2=O)cc(C)c1Br	-17.51
c1cc(SCCOCC2CCCO2)ccn1 (centres undefined)	73.14
COc1ccccc1CN1CCC(N)CC1	19.08
c1cc2nncn2nc1NC1CCCC1	-18.58
O=C(Nc1cccc(CN2CCCC2=O)c1)C1CC1	13.55
Cc1cnc(C)c(NC(C)Cn2cncn2)n1 (centres undefined)	-13.19
NC(=O)C[C@@H](N)c1ccccc1Cl	50.18
O=C(NCc1ccccc1F)c1n[nH]c2c1CCCC2	-7.033
C=C(Br)CN1CCN(C(=O)CN2C(=O)CCC2=O)CC1	-23.73
O=C(CN1C[C@H]2CC[C@@H](C1)[C@H]2O)Nc1ccc(F)cc1	13.88
COc1ccnc(N(CCS(C)(=O)=O)C2CC2)n1	0.8012
Cc1ccc(F)c(S(=O)(=O)N2C[C@H](C3CC3)[C@@H](N)C2)c1	7.08
CC1CCCN(C(=O)c2ccc(-n3cccn3)nc2)C1 (centres undefined)	-6.789
Cc1n[nH]c(C)c1CN1CCCC(O)(CO)CC1 (centres undefined)	-4.123
CCC(C)n1nc(C)cc1NC(=O)NCCNC(C)=O (centres undefined)	-12.59
NC(=O)C1CCN(C(=O)Cc2ccsc2)CC1	-25.6
CNC1CCCCNC1=O (centres undefined)	-14.26

Repeated from the top, 8 entries:

* CCOc1cc(C(=O)NCc2ccc(C)n2C)ccn1 | -6.236%
* O=C(c1ccoc1)N1CCCCC1Cn1cccn1 (centres undefined) | 10.41%
* CC(=O)c1ccc(OCC(O)CNC2CCCC2)cc1 (centres undefined) | 6.61%
* Cn1ccnc1CN(CCO)CC1CC1 | -2.063%
* O=C1NCC(O)n2c1cc(Br)c2Br (centres undefined) | -16.24%
* CN1C(=O)N[C@@H]2CNCC[C@@H]21 | -1.491%
* O=C(C1CCC1)N1C[C@@H](O)[C@H](NCc2cccnc2)C1 | 2.221%
* Cc1cc(Br)cnc1N1CCN(C(C)C(N)=O)CC1 (centres undefined) | -0.3878%